22 molecules from doi:10.1101/2021.03.02.433611 can be followed below.

Amino acid sequences for entries named in this document (tags omitted). A change or cut given only in a name is not applied to a line headed by its entry.
UniProt P35637: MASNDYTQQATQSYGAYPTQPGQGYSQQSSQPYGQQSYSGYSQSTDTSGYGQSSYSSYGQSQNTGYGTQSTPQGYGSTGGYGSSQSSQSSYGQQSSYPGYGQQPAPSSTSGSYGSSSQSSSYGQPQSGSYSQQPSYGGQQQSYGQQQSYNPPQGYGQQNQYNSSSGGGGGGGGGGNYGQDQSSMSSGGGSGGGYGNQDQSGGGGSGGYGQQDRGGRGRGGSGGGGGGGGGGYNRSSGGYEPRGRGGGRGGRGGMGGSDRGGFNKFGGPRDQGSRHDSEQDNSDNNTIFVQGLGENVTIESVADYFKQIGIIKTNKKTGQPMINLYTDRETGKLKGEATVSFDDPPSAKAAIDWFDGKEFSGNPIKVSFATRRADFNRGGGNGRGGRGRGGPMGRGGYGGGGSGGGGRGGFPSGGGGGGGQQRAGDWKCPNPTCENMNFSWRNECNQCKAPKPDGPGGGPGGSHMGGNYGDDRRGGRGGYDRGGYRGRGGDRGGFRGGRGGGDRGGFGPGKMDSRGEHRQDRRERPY
UniProt Q16630: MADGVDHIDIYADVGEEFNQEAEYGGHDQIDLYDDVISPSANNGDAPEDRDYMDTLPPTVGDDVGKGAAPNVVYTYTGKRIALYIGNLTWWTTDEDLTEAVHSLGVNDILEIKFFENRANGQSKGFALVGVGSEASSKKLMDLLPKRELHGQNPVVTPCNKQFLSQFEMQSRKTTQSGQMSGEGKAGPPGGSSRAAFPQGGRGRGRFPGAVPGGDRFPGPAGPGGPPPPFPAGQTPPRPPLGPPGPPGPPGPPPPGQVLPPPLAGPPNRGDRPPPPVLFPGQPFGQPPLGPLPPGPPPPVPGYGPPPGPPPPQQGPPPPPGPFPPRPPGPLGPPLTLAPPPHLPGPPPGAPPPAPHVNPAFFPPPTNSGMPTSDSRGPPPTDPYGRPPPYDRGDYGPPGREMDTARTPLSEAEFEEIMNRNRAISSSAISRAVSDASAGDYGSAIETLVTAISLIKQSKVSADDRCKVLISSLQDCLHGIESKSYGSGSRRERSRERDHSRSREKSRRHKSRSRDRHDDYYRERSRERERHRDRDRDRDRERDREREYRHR
UniProt Q99613: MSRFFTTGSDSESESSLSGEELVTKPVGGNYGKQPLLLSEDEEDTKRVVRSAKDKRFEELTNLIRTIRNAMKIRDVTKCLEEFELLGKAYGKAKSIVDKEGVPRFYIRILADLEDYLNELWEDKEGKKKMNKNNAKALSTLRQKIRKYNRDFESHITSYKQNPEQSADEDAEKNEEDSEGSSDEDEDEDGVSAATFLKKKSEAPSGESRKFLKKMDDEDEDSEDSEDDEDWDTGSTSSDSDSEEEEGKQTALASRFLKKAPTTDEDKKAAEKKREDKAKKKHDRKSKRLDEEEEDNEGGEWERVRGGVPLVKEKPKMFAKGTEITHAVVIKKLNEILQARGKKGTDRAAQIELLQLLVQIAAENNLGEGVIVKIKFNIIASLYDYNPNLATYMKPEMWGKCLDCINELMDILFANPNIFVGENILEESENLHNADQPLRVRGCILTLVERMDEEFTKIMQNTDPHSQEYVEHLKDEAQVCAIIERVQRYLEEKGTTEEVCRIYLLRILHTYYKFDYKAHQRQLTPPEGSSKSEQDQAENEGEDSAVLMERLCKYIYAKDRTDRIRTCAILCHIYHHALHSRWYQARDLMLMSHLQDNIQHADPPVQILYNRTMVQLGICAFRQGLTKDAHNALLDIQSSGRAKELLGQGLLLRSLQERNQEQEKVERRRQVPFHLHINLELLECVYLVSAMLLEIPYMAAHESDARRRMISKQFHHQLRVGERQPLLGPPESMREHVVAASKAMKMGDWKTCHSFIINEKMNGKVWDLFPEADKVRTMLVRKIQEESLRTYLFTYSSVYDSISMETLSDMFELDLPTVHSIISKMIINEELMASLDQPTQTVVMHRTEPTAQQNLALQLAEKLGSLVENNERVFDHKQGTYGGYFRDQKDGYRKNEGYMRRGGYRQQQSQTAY
UniProt O75821: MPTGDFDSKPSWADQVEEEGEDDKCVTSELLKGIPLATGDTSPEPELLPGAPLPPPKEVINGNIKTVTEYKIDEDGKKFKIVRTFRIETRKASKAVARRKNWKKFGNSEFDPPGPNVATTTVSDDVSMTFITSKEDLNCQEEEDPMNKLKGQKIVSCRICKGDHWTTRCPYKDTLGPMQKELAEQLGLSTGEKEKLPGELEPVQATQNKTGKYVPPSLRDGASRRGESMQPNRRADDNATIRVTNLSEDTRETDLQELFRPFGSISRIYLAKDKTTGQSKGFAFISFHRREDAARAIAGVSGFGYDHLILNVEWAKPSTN
UniProt O15372: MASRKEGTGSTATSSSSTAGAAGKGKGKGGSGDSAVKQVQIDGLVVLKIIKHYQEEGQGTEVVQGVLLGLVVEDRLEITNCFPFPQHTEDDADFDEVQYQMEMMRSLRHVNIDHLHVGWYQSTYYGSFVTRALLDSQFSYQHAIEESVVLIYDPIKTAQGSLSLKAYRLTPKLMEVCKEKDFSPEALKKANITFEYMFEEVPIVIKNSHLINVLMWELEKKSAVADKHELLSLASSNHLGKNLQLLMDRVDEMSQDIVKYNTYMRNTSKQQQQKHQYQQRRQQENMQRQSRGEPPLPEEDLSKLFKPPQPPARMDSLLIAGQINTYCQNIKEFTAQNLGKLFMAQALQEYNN
UniProt Q13347: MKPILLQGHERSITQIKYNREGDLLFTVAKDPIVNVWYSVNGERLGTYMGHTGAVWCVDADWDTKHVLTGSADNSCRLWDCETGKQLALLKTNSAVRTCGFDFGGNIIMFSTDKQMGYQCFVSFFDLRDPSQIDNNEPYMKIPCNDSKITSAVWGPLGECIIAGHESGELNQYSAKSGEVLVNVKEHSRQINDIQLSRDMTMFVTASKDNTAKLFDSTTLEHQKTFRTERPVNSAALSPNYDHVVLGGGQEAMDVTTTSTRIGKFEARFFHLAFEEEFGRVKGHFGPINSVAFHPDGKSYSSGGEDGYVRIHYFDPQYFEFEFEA
UniProt Q9UBQ5: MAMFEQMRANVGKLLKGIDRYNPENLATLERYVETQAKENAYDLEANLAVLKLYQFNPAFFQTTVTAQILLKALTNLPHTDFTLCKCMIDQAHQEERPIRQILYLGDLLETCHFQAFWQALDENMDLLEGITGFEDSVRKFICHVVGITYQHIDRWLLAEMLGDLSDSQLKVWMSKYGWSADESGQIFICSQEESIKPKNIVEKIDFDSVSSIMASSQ
UniProt Q9Y262: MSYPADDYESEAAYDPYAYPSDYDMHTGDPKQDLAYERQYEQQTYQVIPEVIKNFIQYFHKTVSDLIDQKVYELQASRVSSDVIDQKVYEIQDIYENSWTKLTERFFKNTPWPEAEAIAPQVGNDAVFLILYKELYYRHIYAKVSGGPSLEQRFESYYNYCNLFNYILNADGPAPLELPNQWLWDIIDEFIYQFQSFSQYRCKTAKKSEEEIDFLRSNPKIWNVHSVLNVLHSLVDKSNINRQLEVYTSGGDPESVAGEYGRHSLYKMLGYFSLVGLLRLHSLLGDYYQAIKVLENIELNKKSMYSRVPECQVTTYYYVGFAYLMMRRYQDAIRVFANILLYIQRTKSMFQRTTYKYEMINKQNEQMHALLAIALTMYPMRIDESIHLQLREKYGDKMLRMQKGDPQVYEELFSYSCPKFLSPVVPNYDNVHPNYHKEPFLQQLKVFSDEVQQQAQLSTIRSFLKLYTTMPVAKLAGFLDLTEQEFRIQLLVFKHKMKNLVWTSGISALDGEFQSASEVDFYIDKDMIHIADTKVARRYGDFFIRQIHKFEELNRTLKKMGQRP
UniProt Q9NQT5: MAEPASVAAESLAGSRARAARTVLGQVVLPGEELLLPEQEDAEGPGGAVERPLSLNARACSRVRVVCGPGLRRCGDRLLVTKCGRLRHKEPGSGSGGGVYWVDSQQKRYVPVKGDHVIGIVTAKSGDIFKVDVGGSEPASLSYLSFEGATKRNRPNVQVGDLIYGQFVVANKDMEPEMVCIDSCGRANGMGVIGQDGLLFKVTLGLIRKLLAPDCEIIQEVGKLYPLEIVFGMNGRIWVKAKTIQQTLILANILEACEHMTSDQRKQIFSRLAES
UniProt Q09161: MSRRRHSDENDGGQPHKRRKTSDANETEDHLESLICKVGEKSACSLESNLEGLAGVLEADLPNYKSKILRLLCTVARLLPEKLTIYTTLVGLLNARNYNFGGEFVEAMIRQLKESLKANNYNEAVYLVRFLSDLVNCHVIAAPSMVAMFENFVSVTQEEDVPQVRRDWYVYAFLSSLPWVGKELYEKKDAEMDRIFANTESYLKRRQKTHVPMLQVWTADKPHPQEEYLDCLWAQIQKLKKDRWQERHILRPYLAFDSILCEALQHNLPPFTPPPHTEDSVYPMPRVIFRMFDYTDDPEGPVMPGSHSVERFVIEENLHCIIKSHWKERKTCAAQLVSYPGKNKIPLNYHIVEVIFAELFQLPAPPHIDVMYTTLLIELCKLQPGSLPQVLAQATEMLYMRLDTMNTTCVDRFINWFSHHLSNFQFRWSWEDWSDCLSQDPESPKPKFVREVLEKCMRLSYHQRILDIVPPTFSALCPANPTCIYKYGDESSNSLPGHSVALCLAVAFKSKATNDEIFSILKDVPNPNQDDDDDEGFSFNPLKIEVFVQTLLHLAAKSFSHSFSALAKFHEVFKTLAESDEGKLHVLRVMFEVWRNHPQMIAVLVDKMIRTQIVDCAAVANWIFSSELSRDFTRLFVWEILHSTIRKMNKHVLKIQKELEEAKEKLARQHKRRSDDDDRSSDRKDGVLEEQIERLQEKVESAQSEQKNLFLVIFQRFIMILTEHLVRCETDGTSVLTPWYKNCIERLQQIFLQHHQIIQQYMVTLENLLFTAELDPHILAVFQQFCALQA
UniProt Q13242: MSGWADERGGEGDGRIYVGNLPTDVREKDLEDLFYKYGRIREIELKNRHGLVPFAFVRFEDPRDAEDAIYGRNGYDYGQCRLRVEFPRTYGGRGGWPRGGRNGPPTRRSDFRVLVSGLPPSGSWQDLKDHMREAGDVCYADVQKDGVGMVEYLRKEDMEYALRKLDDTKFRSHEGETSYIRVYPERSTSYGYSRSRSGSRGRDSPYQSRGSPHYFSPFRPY
UniProt Q13283: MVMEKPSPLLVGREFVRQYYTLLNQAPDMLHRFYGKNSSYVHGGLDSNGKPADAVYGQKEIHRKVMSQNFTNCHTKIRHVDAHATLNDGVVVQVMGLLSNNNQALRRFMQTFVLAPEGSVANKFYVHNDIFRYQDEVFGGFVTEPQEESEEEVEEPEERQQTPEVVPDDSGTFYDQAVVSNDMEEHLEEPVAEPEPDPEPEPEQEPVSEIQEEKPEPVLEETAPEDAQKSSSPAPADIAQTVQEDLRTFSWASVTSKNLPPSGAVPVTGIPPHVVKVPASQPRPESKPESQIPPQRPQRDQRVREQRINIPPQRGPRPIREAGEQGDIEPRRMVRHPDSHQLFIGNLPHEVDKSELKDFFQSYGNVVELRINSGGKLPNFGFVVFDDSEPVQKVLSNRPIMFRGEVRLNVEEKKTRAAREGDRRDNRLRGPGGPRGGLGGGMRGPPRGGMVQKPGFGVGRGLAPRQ
UniProt P28066: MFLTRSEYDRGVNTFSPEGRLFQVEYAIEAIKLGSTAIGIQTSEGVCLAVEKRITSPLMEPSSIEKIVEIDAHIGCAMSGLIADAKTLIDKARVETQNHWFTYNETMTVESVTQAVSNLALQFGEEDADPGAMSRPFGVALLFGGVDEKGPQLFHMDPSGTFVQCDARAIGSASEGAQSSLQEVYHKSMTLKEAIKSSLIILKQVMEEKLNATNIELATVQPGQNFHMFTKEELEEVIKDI
UniProt P60900: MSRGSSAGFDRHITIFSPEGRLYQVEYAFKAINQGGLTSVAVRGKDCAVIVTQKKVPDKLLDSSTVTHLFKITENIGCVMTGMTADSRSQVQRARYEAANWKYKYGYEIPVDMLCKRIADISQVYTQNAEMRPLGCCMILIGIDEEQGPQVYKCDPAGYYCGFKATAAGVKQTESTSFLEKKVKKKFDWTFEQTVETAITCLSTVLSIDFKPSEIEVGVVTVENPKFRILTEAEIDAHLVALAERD
UniProt O14818: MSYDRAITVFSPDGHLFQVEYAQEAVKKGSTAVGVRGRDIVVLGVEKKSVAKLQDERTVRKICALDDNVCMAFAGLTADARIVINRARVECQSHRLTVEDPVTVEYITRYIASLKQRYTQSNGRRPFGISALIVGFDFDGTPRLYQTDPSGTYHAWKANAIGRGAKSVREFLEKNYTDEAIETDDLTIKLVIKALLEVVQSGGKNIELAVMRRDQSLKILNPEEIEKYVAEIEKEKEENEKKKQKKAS
UniProt P28074: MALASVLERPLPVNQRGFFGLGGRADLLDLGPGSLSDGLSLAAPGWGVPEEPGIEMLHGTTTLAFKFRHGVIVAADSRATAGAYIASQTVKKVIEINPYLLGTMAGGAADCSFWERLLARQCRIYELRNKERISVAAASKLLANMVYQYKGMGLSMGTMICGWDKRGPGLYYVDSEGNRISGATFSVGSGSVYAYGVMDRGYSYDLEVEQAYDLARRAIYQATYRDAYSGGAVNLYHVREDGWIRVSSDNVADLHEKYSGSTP

To fix the notation:
B1: DAZAP1 (protein, UniProt Q96EP5 1-407)
chain: MNNSGADEIGKLFVGGLDWSTTQETLRSYFSQYGEVVDCVIMKDKTTNQSRGFGFVKFKDPNCVGTVLASRPHTLDGRNIDPKPCTPRGMQPERTRPKEGWQKGPRSDNSKSNKIFVGGIPHNCGETELREYFKKFGVVTEVVMIYDAEKQRPRGFGFITFEDEQSVDQAVNMHFHDIMGKKVEVKRAEPRDSKSQAPGQPGASQWGSRVVPNAANGWAGQPPPTWQQGYGPQGMWVPAGQAIGGYGPPPAGRGAPPPPPPFTSYIVSTPPGGFPPPQGFPQGYGAPPQFSFGYGPPPPPPDQFAPPGVPPPPATPGAAPLAFPPPPSQAAPDMSKPPTAQPDFPYGQYAGYGQDLSGFGQGFSDPSQQPPSYGGPSVPGSGGPPAGGSGFGRGQNHNVQGFHPYRR
B2: CPSF7 (protein, UniProt Q8N684 1-471)
chain: MSEGVDLIDIYADEEFNQDPEFNNTDQIDLYDDVLTATSQPSDDRSSSTEPPPPVRQEPSPKPNNKTPAILYTYSGLRNRRAAVYVGSFSWWTTDQQLIQVIRSIGVYDVVELKFAENRANGQSKGYAEVVVASENSVHKLLELLPGKVLNGEKVDVRPATRQNLSQFEAQARKRECVRVPRGGIPPRAHSRDSSDSADGRATPSENLVPSSARVDKPPSVLPYFNRPPSALPLMGLPPPPIPPPPPLSSSFGVPPPPPGIHYQHLMPPPPRLPPHLAVPPPGAIPPALHLNPAFFPPPNATVGPPPDTYMKASAPYNHHGSRDSGPPPSTVSEAEFEDIMKRNRAISSSAISKAVSGASAGDYSDAIETLLTAIAVIKQSRVANDERCRVLISSLKDCLHGIEAKSYSVGASGSSSRKRHRSRERSPSRSRESSRRHRDLLHNEDRHDDYFQERNREHERHRDRERDRHH
B3: CPSF1 (protein, UniProt Q10570 1-1443)
chain: MYAVYKQAHPPTGLEFSMYCNFFNNSERNLVVAGTSQLYVYRLNRDAEALTKNDRSTEGKAHREKLELAASFSFFGNVMSMASVQLAGAKRDALLLSFKDAKLSVVEYDPGTHDLKTLSLHYFEEPELRDGFVQNVHTPRVRVDPDGRCAAMLVYGTRLVVLPFRRESLAEEHEGLVGEGQRSSFLPSYIIDVRALDEKLLNIIDLQFLHGYYEPTLLILFEPNQTWPGRVAVRQDTCSIVAISLNITQKVHPVIWSLTSLPFDCTQALAVPKPIGGVVVFAVNSLLYLNQSVPPYGVALNSLTTGTTAFPLRTQEGVRITLDCAQATFISYDKMVISLKGGEIYVLTLITDGMRSVRAFHFDKAAASVLTTSMVTMEPGYLFLGSRLGNSLLLKYTEKLQEPPASAVREAADKEEPPSKKKRVDATAGWSAAGKSVPQDEVDEIEVYGSEAQSGTQLATYSFEVCDSILNIGPCANAAVGEPAFLSEEFQNSPEPDLEIVVCSGHGKNGALSVLQKSIRPQVVTTFELPGCYDMWTVIAPVRKEEEDNPKGEGTEQEPSTTPEADDDGRRHGFLILSREDSTMILQTGQEIMELDTSGFATQGPTVFAGNIGDNRYIVQVSPLGIRLLEGVNQLHFIPVDLGAPIVQCAVADPYVVIMSAEGHVTMFLLKSDSYGGRHHRLALHKPPLHHQSKVITLCLYRDLSGMFTTESRLGGARDELGGRSGPEAEGLGSETSPTVDDEEEMLYGDSGSLFSPSKEEARRSSQPPADRDPAPFRAEPTHWCLLVRENGTMEIYQLPDWRLVFLVKNFPVGQRVLVDSSFGQPTTQGEARREEATRQGELPLVKEVLLVALGSRQSRPYLLVHVDQELLIYEAFPHDSQLGQGNLKVRFKKVPHNINFREKKPKPSKKKAEGGGAEEGAGARGRVARFRYFEDIYGYSGVFICGPSPHWLLVTGRGALRLHPMAIDGPVDSFAPFHNVNCPRGFLYFNRQGELRISVLPAYLSYDAPWPVRKIPLRCTAHYVAYHVESKVYAVATSTNTPCARIPRMTGEEKEFETIERDERYIHPQQEAFSIQLISPVSWEAIPNARIELQEWEHVTCMKTVSLRSEETVSGLKGYVAAGTCLMQGEEVTCRGRILIMDVIEVVPEPGQPLTKNKFKVLYEKEQKGPVTALCHCNGHLVSAIGQKIFLWSLRASELTGMAFIDTQLYIHQMISVKNFILAADVMKSISLLRYQEESKTLSLVSRDAKPLEVYSVDFMVDNAQLGFLVSDRDRNLMVYMYLPEAKESFGGMRLLRRADFHVGAHVNTFWRTPCRGATEGLSKKSVVWENKHITWFATLDGGIGLLLPMQEKTYRRLLMLQNALTTMLPHHAGLNPRAFRMLHVDRRTLQNAVRNVLDGELLNRYLYLSTMERSELAKKIGTTPDIILDDLLETDRVTAHF
B4: NUPL2 (protein, UniProt O15504 1-423)
chain: MAICQFFLQGRCRFGDRCWNEHPGARGAGGGRQQPQQQPSGNNRRGWNTTSQRYSNVIQPSSFSKSTPWGGSRDQEKPYFSSFDSGASTNRKEGFGLSENPFASLSPDEQKDEKKLLEGIVKDMEVWESSGQWMFSVYSPVKKKPNISGFTDISPEELRLEYHNFLTSNNLQSYLNSVQRLINQWRNRVNELKSLNISTKVALLSDVKDGVNQAAPAFGFGSSQAATFMSPGFPVNNSSSDNAQNFSFKTNSGFAAASSGSPAGFGSSPAFGAAASTSSGISTSAPAFGFGKPEVTSAASFSFKSPAASSFGSPGFSGLPASLATGPVRAPVAPAFGGGSSVAGFGSPGSHSHTAFSKPSSDTFGNSSISTSLSASSSIIATDNVLFTPRDKLTVEELEQFQSKKFTLGKIPLKPPPLELLNV
B5: NUP107 (protein, UniProt P57740 1-925)
chain: MDRSGFGEISSPVIREAEVTRTARKQSAQKRVLLQASQDENFGNTTPRNQVIPRTPSSFRQPFTPTSRSLLRQPDISCILGTGGKSPRLTQSSGFFGNLSMVTNLDDSNWAAAFSSQRSGLFTNTEPHSITEDVTISAVMLREDDPGEAASMSMFSDFLQSFLKHSSSTVFDLVEEYENICGSQVNILSKIVSRATPGLQKFSKTASMLWLLQQEMVTWRLLASLYRDRIQSALEEESVFAVTAVNASEKTVVEALFQRDSLVRQSQLVVDWLESIAKDEIGEFSDNIEFYAKSVYWENTLHTLKQRQLTSYVGSVRPLVTELDPDAPIRQKMPLDDLDREDEVRLLKYLFTLIRAGMTEEAQRLCKRCGQAWRAATLEGWKLYHDPNVNGGTELEPVEGNPYRRIWKISCWRMAEDELFNRYERAIYAALSGNLKQLLPVCDTWEDTVWAYFRVMVDSLVEQEIQTSVATLDETEELPREYLGANWTLEKVFEELQATDKKRVLEENQEHYHIVQKFLILGDIDGLMDEFSKWLSKSRNNLPGHLLRFMTHLILFFRTLGLQTKEEVSIEVLKTYIQLLIREKHTNLIAFYTCHLPQDLAVAQYALFLESVTEFEQRHHCLELAKEADLDVATITKTVVENIRKKDNGEFSHHDLAPALDTGTTEEDRLKIDVIDWLVFDPAQRAEALKQGNAIMRKFLASKKHEAAKEVFVKIPQDSIAEIYNQCEEQGMESPLPAEDDNAIREHLCIRAYLEAHETFNEWFKHMNSVPQKPALIPQPTFTEKVAHEHKEKKYEMDFGIWKGHLDALTADVKEKMYNVLLFVDGGWMVDVREDAKEDHERTHQMVLLRKLCLPMLCFLLHTILHSTGQYQECLQLADMVSSERHKLYLVFSKEELRKLLQKLRESSLMLLDQGLDPLGYEIQL
B6: NUP85 (protein, UniProt Q9BW27 1-656)
chain: MEELDGEPTVTLIPGVNSKKNQMYFDWGPGEMLVCETSFNKKEKSEMVPSCPFIYIIRKDVDVYSQILRKLFNESHGIFLGLQRIDEELTGKSRKSQLVRVSKNYRSVIRACMEEMHQVAIAAKDPANGRQFSSQVSILSAMELIWNLCEILFIEVAPAGPLLLHLLDWVRLHVCEVDSLSADVLGSENPSKHDSFWNLVTILVLQGRLDEARQMLSKEADASPASAGICRIMGDLMRTMPILSPGNTQTLTELELKWQHWHEECERYLQDSTFATSPHLESLLKIMLGDEAALLEQKELLSNWYHFLVTRLLYSNPTVKPIDLHYYAQSSLDLFLGGESSPEPLDNILLAAFEFDIHQVIKECSIALSNWWFVAHLTDLLDHCKLLQSHNLYFGSNMREFLLLEYASGLFAHPSLWQLGVDYFDYCPELGRVSLELHIERIPLNTEQKALKVLRICEQRQMTEQVRSICKILAMKAVRNNRLGSALSWSIRAKDAAFATLVSDRFLRDYCERGCFSDLDLIDNLGPAMMLSDRLTFLGKYREFHRMYGEKRFADAASLLLSLMTSRIAPRSFWMTLLTDALPLLEQKQVIFSAEQTYELMRCLEDLTSRRPVHGESDTEQLQDDDIETTKVEMLRLSLARNLARAIIREGSLEGS

These are yes or no findings as the source states them, for the method shown. In cells and extracts the contact can be indirect. These calls come from enrichment with a bait or labelling near it, and not all partners need be listed.

One test concerns the target FUS(R522G)-GFP (human) (UniProt P35637). The test is described as follows: affinity purification with mass spectrometry.
Regarding CPSF6 (from UniProt Q16630 1-551), the binding entry was “binds”.
Still for that read-out and setting: then EIF3C (from UniProt Q99613 1-913), with “binds”; and EIF3G (from UniProt O75821 1-320), with “binds”; and EIF3H (from UniProt O15372 1-352), with “binds”.
EIF3I (from UniProt Q13347 1-325): the binding entry is recorded as “binds”.
EIF3K (from UniProt Q9UBQ5 1-218): the binding entry is recorded as “binds”.
Regarding EIF3L (from UniProt Q9Y262 1-564), the binding result is reported as “binds”.
Turning to EXOSC3 (from UniProt Q9NQT5 1-275), the binding result was “binds”.
For the molecule NCBP1 (from UniProt Q09161 1-790), the binding entry was “binds”.
Same read-out and setting: for SRSF9 (from UniProt Q13242 1-221) the value was “binds”.
The same measure, in the same setting: for B1 the value was “binds”; for B2, “binds”.
Still for that read-out and setting: then B3, with “binds”.

The target in a further test is G3BP1-GFP (UniProt Q13283). Put plainly: affinity purification with mass spectrometry.
For PSMA5 (from UniProt P28066 1-241), the binding entry was “binds”.
PSMA6 (from UniProt P60900 1-246): the binding result is reported as “binds”.
Turning to PSMA7 (from UniProt O14818 1-248), the binding entry was “binds”.
For the molecule PSMB2 (from UniProt P49721 1-201), the binding result is on record as “binds”.
In the case of PSMB5 (from UniProt P28074), the binding result was “binds”.
Take PSMC3 (from UniProt P17980 1-439): the binding entry is “binds”.
Take B4: the binding entry was “binds”.
B5: the binding result is “binds”.
B6: the binding result is on record as “binds”.
